Laboratory results taken from PMC5865676.
Read-outs that look alike come from different tables or passages of the source. Results are given in words; binding and its absence hold for the method and conditions named. Binding seen in cells or lysates may run through a third protein. Some results given as binding are weak or reduced against the parent protein; the word gives no strength.

The chains behind the UniProt entries cited, without tags or fusion partners.
UniProt P62140: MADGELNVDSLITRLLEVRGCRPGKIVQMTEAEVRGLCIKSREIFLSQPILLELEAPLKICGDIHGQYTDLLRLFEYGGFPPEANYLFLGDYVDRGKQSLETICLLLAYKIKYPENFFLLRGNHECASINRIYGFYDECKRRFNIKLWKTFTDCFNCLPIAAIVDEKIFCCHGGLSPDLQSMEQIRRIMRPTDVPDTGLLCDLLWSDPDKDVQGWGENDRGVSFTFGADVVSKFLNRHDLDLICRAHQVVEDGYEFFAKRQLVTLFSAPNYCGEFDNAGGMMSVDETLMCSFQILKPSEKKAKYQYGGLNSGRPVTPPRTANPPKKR
UniProt Q13263: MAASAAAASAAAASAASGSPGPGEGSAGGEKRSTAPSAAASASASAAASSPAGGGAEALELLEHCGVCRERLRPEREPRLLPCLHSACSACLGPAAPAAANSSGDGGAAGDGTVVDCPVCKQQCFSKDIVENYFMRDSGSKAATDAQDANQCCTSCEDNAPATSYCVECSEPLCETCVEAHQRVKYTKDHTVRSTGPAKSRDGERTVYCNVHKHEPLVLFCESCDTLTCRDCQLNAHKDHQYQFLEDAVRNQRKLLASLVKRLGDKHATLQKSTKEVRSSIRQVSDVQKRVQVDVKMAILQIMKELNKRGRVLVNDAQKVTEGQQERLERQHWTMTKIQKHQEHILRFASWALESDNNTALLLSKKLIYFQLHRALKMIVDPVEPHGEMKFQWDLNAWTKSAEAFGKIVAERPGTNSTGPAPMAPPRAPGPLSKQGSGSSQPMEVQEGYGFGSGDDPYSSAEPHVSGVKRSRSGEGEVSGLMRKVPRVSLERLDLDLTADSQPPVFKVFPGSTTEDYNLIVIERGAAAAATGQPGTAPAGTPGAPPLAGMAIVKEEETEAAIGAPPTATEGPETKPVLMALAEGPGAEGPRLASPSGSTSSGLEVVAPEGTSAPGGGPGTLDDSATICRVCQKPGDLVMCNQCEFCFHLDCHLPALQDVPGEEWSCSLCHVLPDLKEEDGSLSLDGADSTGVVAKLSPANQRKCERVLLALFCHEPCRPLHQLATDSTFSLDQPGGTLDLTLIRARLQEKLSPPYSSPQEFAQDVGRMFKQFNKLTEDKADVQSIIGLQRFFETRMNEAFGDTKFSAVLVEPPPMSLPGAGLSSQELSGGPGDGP
UniProt P19474: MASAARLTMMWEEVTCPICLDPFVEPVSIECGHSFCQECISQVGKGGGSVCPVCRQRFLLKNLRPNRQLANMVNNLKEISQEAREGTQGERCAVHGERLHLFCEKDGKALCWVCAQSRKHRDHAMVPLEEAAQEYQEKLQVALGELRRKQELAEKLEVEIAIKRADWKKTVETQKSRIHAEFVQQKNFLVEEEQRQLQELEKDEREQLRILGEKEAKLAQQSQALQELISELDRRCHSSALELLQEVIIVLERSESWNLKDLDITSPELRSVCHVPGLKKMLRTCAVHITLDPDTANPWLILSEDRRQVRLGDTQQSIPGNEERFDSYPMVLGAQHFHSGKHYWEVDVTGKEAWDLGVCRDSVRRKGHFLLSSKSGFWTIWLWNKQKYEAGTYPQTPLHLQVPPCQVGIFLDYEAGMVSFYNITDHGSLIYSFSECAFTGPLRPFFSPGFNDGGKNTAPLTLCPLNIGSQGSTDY
UniProt O00571: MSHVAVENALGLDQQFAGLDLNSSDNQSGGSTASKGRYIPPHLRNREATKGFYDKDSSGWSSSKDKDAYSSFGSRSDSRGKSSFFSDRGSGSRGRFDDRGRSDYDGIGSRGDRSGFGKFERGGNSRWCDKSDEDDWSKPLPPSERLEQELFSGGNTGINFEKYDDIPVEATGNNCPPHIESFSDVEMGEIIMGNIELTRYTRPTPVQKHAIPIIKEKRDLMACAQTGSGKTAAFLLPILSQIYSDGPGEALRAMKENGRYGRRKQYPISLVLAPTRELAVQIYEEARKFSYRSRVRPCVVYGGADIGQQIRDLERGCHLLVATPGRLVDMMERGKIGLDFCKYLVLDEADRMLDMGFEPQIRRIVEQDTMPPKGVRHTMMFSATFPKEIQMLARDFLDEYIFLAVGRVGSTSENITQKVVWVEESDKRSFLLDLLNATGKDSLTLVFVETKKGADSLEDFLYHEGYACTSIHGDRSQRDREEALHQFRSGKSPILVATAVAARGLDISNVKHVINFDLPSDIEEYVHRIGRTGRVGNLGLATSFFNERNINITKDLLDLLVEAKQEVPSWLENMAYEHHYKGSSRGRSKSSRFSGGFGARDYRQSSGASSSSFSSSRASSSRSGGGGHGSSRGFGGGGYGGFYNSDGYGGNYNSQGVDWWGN
UniProt P62136: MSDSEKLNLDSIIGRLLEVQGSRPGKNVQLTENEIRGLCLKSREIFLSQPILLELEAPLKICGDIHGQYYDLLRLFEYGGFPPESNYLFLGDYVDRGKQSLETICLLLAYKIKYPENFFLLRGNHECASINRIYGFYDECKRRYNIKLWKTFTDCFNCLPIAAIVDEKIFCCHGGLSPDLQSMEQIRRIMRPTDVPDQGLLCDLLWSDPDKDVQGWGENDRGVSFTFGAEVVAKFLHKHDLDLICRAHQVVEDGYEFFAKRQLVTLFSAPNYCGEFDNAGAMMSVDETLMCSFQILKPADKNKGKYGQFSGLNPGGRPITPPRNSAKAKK
UniProt P36873: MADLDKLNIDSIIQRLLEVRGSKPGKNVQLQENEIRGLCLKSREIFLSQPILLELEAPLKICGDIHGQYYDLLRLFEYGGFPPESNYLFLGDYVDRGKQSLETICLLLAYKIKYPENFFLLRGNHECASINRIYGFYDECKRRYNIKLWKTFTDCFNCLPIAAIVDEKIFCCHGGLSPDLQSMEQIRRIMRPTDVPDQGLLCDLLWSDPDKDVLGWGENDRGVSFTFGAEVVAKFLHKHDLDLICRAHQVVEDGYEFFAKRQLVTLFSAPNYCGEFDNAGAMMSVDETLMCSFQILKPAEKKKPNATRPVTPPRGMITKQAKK

T1: Transforming growth factor-β (TGFβ)-activated kinase 1 (TAK1), endogenous (human (endogenous in AGS)) (UniProt O43318)
T1 sequence: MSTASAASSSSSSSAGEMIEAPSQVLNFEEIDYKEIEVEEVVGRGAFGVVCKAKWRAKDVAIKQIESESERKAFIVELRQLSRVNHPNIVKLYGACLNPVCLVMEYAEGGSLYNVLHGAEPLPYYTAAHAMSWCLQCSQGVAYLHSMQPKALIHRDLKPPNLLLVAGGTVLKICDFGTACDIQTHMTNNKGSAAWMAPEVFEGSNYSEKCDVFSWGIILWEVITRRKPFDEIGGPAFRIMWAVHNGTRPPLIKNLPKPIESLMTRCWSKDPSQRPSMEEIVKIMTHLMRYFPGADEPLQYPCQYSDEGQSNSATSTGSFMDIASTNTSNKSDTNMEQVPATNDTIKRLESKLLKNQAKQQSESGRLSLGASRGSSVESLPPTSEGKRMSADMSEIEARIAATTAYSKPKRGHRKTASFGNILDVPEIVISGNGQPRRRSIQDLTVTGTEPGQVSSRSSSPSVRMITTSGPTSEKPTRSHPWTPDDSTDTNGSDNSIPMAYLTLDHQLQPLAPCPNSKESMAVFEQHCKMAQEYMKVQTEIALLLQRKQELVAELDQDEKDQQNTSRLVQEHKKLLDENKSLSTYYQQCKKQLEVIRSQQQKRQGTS

T2: TAK1 overexpressed from pCMV-TAK1 (UniProt O43318)
T2 sequence: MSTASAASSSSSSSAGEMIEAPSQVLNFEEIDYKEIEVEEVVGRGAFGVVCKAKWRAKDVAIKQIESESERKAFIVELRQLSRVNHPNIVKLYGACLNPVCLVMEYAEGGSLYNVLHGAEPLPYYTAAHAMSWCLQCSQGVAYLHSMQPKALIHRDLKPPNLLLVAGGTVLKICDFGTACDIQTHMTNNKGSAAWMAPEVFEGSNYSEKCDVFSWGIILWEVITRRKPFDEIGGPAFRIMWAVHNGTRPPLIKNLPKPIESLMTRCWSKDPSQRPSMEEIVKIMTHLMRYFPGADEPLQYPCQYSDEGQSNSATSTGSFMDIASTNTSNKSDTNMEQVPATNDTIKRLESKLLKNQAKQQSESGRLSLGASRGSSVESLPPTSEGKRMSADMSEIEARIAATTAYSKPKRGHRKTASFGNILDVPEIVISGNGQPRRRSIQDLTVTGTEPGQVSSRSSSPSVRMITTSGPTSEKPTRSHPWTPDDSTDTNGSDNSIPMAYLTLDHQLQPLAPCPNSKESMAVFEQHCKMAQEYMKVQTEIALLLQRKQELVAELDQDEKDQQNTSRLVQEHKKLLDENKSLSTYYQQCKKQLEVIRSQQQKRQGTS

T3: TAK1-binding protein TAB3 (human (endogenous in AGS)) (UniProt Q8N5C8)
T3 sequence: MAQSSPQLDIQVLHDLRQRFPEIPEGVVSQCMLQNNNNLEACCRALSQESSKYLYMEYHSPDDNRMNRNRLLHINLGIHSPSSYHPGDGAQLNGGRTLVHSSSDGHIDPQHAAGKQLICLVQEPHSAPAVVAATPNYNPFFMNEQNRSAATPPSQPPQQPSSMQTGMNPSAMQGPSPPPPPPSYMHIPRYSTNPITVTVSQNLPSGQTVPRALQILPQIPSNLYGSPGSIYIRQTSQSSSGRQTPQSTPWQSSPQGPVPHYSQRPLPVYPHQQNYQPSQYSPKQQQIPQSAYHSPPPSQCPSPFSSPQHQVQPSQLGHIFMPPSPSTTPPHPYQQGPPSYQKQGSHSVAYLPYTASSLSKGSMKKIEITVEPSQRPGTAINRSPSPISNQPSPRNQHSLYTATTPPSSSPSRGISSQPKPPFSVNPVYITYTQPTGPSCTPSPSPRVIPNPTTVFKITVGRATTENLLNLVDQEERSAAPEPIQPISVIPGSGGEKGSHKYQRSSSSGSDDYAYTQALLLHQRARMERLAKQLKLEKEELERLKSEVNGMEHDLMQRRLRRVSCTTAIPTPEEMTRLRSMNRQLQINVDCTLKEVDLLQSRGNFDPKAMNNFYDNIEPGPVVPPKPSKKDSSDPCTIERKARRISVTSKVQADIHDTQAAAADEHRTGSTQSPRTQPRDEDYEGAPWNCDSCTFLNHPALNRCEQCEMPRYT

T4: TAK1-binding protein TAB2 (human (endogenous in AGS)) (UniProt Q9NYJ8)
T4 sequence: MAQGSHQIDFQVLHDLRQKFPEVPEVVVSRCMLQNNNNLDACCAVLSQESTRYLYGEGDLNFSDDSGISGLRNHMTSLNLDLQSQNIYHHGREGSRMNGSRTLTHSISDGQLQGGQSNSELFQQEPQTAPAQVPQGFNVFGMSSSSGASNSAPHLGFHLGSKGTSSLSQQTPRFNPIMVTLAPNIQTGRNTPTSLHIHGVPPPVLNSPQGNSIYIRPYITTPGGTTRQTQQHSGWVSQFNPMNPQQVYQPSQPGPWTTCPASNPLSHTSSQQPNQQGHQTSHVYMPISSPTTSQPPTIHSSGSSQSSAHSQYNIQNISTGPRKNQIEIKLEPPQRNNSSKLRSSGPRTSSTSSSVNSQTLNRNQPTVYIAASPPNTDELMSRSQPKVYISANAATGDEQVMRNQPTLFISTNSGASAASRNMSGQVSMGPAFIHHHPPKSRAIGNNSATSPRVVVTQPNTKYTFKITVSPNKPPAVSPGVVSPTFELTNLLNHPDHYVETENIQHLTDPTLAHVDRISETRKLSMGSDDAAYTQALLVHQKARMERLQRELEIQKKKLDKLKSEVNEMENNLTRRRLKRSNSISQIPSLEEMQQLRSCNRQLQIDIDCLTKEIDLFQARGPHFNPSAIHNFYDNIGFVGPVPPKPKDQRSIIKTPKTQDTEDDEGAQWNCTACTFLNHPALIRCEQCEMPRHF


Assays:
[1] = molecular target: T1, Transforming growth factor-β (TGFβ)-activated kinase 1 (TAK1), endogenous (human (endogenous in AGS)); assay: co-IP
[2] = molecular target: T2, TAK1 overexpressed from pCMV-TAK1; assay: co-IP; TAK1 overexpressed in AGS cells, lysate incubated with TAK1 antibody, isotype control antibody or no antibody, immunoblot (Figure 4A)
[3] = molecular target: T1, Transforming growth factor-β (TGFβ)-activated kinase 1 (TAK1), endogenous (human (endogenous in AGS)); assay: co-IP; remark: listed apart in the source
[4] = molecular target: T3, TAK1-binding protein TAB3 (human (endogenous in AGS)); assay: co-IP
[5] = molecular target: T4, TAK1-binding protein TAB2 (human (endogenous in AGS)); assay: co-IP

Molecule	binding [1]	binding [2]	binding [3]	further results
PPP1CB, catalytic subunit of serine/threonine-protein phosphatase 1 (PP1) (from UniProt P62140 1-327) (enzyme)	binds	–	–	–
Tripartite motif 28 (TRIM28) (from UniProt Q13263 1-835)	binds	binds	–	–
Tripartite motif (TRIM)21 (from UniProt P19474 1-475)	binds	binds	–	–
TAK1-binding protein TAB2 (protein, UniProt Q9NYJ8 1-693) MAQGSHQIDFQVLHDLRQKFPEVPEVVVSRCMLQNNNNLDACCAVLSQESTRYLYGEGDLNFSDDSGISGLRNHMTSLNLDLQSQNIYHHGREGSRMNGSRTLTHSISDGQLQGGQSNSELFQQEPQTAPAQVPQGFNVFGMSSSSGASNSAPHLGFHLGSKGTSSLSQQTPRFNPIMVTLAPNIQTGRNTPTSLHIHGVPPPVLNSPQGNSIYIRPYITTPGGTTRQTQQHSGWVSQFNPMNPQQVYQPSQPGPWTTCPASNPLSHTSSQQPNQQGHQTSHVYMPISSPTTSQPPTIHSSGSSQSSAHSQYNIQNISTGPRKNQIEIKLEPPQRNNSSKLRSSGPRTSSTSSSVNSQTLNRNQPTVYIAASPPNTDELMSRSQPKVYISANAATGDEQVMRNQPTLFISTNSGASAASRNMSGQVSMGPAFIHHHPPKSRAIGNNSATSPRVVVTQPNTKYTFKITVSPNKPPAVSPGVVSPTFELTNLLNHPDHYVETENIQHLTDPTLAHVDRISETRKLSMGSDDAAYTQALLVHQKARMERLQRELEIQKKKLDKLKSEVNEMENNLTRRRLKRSNSISQIPSLEEMQQLRSCNRQLQIDIDCLTKEIDLFQARGPHFNPSAIHNFYDNIGFVGPVPPKPKDQRSIIKTPKTQDTEDDEGAQWNCTACTFLNHPALIRCEQCEMPRHF	–	–	binds	–
TAK1-binding protein TAB1, endogenous (protein, UniProt Q15750 1-504) MAAQRRSLLQSEQQPSWTDDLPLCHLSGVGSASNRSYSADGKGTESHPPEDSWLKFRSENNCFLYGVFNGYDGNRVTNFVAQRLSAELLLGQLNAEHAEADVRRVLLQAFDVVERSFLESIDDALAEKASLQSQLPEGVPQHQLPPQYQKILERLKTLEREISGGAMAVVAVLLNNKLYVANVGTNRALLCKSTVDGLQVTQLNVDHTTENEDELFRLSQLGLDAGKIKQVGIICGQESTRRIGDYKVKYGYTDIDLLSAAKSKPIIAEPEIHGAQPLDGVTGFLVLMSEGLYKALEAAHGPGQANQEIAAMIDTEFAKQTSLDAVAQAVVDRVKRIHSDTFASGGERARFCPRHEDMTLLVRNFGYPLGEMSQPTPSPAPAAGGRVYPVSVPYSSAQSTSKTSVTLSLVMPSQGQMVNGAHSASTLDEATPTLTNQSPTLTLQSTNTHTQSSSSSSDGGLFRSRPAHSLPPGEDGRVEPYVDFAEFYRLWSVDHGEQSVVTAP	–	–	binds	–
Transforming growth factor-β (TGFβ)-activated kinase 1 (TAK1), endogenous (enzyme, UniProt O43318 1-606) MSTASAASSSSSSSAGEMIEAPSQVLNFEEIDYKEIEVEEVVGRGAFGVVCKAKWRAKDVAIKQIESESERKAFIVELRQLSRVNHPNIVKLYGACLNPVCLVMEYAEGGSLYNVLHGAEPLPYYTAAHAMSWCLQCSQGVAYLHSMQPKALIHRDLKPPNLLLVAGGTVLKICDFGTACDIQTHMTNNKGSAAWMAPEVFEGSNYSEKCDVFSWGIILWEVITRRKPFDEIGGPAFRIMWAVHNGTRPPLIKNLPKPIESLMTRCWSKDPSQRPSMEEIVKIMTHLMRYFPGADEPLQYPCQYSDEGQSNSATSTGSFMDIASTNTSNKSDTNMEQVPATNDTIKRLESKLLKNQAKQQSESGRLSLGASRGSSVESLPPTSEGKRMSADMSEIEARIAATTAYSKPKRGHRKTASFGNILDVPEIVISGNGQPRRRSIQDLTVTGTEPGQVSSRSSSPSVRMITTSGPTSEKPTRSHPWTPDDSTDTNGSDNSIPMAYLTLDHQLQPLAPCPNSKESMAVFEQHCKMAQEYMKVQTEIALLLQRKQELVAELDQDEKDQQNTSRLVQEHKKLLDENKSLSTYYQQCKKQLEVIRSQQQKRQGTS	–	–	–	binding [4]: binds; binding [5]: binds

Continued, in another order:

binding [1]	binding [2]	binding [3]	Molecule	further results
binds	binds	–	Asp-Glu-Ala-Asp (DEAD)-box helicase DDX3 (from UniProt O00571 1-662) (enzyme)	–
binds	binds	–	PPP1CA, catalytic subunit of serine/threonine-protein phosphatase 1 (PP1) (from UniProt P62136 1-330) (enzyme)	–
binds	–	–	PPP1CC, catalytic subunit of serine/threonine-protein phosphatase 1 (PP1) (from UniProt P36873 1-323) (enzyme)	–
–	binds	binds	CDC37 (protein, UniProt Q16543 1-378) MVDYSVWDHIEVSDDEDETHPNIDTASLFRWRHQARVERMEQFQKEKEELDRGCRECKRKVAECQRKLKELEVAEGGKAELERLQAEAQQLRKEERSWEQKLEEMRKKEKSMPWNVDTLSKDGFSKSMVNTKPEKTEEDSEEVREQKHKTFVEKYEKQIKHFGMLRRWDDSQKYLSDNVHLVCEETANYLVIWCIDLEVEEKCALMEQVAHQTIVMQFILELAKSLKVDPRACFRQFFTKIKTADRQYMEGFNDELEAFKERVRGRAKLRIEKAMKEYEEEERKKRLGPGGLDPVEVYESLPEELQKCFDVKDVQMLQDAISKMDPTDAKYHMQRCIDSGLWVPNSKASEAKEGEEAGPGDPLLEAVPKTGDEKDVSV	–
–	–	binds	TAK1-binding protein TAB3 (protein, UniProt Q8N5C8 1-712) MAQSSPQLDIQVLHDLRQRFPEIPEGVVSQCMLQNNNNLEACCRALSQESSKYLYMEYHSPDDNRMNRNRLLHINLGIHSPSSYHPGDGAQLNGGRTLVHSSSDGHIDPQHAAGKQLICLVQEPHSAPAVVAATPNYNPFFMNEQNRSAATPPSQPPQQPSSMQTGMNPSAMQGPSPPPPPPSYMHIPRYSTNPITVTVSQNLPSGQTVPRALQILPQIPSNLYGSPGSIYIRQTSQSSSGRQTPQSTPWQSSPQGPVPHYSQRPLPVYPHQQNYQPSQYSPKQQQIPQSAYHSPPPSQCPSPFSSPQHQVQPSQLGHIFMPPSPSTTPPHPYQQGPPSYQKQGSHSVAYLPYTASSLSKGSMKKIEITVEPSQRPGTAINRSPSPISNQPSPRNQHSLYTATTPPSSSPSRGISSQPKPPFSVNPVYITYTQPTGPSCTPSPSPRVIPNPTTVFKITVGRATTENLLNLVDQEERSAAPEPIQPISVIPGSGGEKGSHKYQRSSSSGSDDYAYTQALLLHQRARMERLAKQLKLEKEELERLKSEVNGMEHDLMQRRLRRVSCTTAIPTPEEMTRLRSMNRQLQINVDCTLKEVDLLQSRGNFDPKAMNNFYDNIEPGPVVPPKPSKKDSSDPCTIERKARRISVTSKVQADIHDTQAAAADEHRTGSTQSPRTQPRDEDYEGAPWNCDSCTFLNHPALNRCEQCEMPRYT	–
